Experimental data: US10975016B2, “Solvent compounds for use as glycol ether replacements” (TBF ENVIRONMENTAL TECHNOLOGY INC., priority 2017, dated 2021)

Assay: 4.3% of coalescent in acrylic polymer Raycryl 1001: mixing and film properties
Settings: for Compatibility / Film Clarity / Film Flexibility, Softness / Film Gloss / Film Integrity: 4.3% of coalescent in Raycryl 1001; for Mixing Ease: 4.3% of coalescent in Raycryl 1001 (46% solid)

| SMILES | Compatibility | Film Clarity | Film Flexibility, Softness | Film Gloss | Film Integrity | Mixing Ease |
| --- | --- | --- | --- | --- | --- | --- |
| CCCCOCCO [Butyl Cellosolve] | Compatible | Clear | Brittle | Glossy | Cracked | Easy |
| CC(C)C(=O)OCC(C)(C)C(O)C(C)C (stereo not drawn) [Texanol] | Compatible | Clear | Brittle | Glossy | Cracked | Not Easy, |
| CCCCOCCOC(=O)OCCOCCCC [XBC4, bis(2-ButoxyEthyl Carbonate)] | Compatible | Clear | Flexible, | Glossy | Clear | Not Easy, |
